Test system: Mecp2 Het mice
Experiment: Prepulse inhibition (PPI) of the acoustic startle response
Type: in vivo
Conditions: ketamine 8 mg/kg
Experimental: Prepulse inhibition (PPI) of the acoustic startle response (ASR) was measured to assess sensorimotor gating function using Med Associates Startle Response recording system. Mice were divided into four groups (Het ketamine, Het vehicle, Wt ketamine, Wt vehicle), and received injections of either ketamine (8 mg/kg) or an equivalent amount of saline immediately before they were placed individually inside a small-sized, nonrestrictive, cubical Plexiglas recording chamber [2.5 inches (L)×2.5 inches (W)×1.75 inches (H)] fixed on an accelerometer platform and allowed to acclimate for 5 min. Subsequently, the mouse was exposed to 4 testing blocks. In the first testing block, the initial startle response amplitude was determined by delivering a 40 ms pulse of 120 dB broadband white noise and recording the maximum startle amplitude (Vmax). A baseline startle response was determined by repeating this recording paradigm for six consecutive trials (with 8-23 s between each stimulus) and calculating the average Vmax measured in those trials. […] The Vmax measured from each prepulse-pulse trial was compared with the Vmax measured from the 120 dB pulse-only trials, and a percentage prepulse inhibition (% PPI) was calculated for each prepulse intensity. […]

Q: How did the “Startle amplitude (acoustic startle alone)” value (Het mice) turn out when CNC1(c2ccccc2Cl)CCCCC1=O (centres unmarked) [ketamine] was run?
A: Its value is 862.7±149.5.

Q: And the “Startle amplitude (acoustic startle alone)” value (Wt mice)?
A: Its value is 798.6±106.3.

— patent US11213494B2 (priority 2016, dated 2022)
